Primary screen of a compound library

Protein sequences, listed by entry. Tags and fused reporters are not part of them.
UniProt E9BF75, entry or part of it: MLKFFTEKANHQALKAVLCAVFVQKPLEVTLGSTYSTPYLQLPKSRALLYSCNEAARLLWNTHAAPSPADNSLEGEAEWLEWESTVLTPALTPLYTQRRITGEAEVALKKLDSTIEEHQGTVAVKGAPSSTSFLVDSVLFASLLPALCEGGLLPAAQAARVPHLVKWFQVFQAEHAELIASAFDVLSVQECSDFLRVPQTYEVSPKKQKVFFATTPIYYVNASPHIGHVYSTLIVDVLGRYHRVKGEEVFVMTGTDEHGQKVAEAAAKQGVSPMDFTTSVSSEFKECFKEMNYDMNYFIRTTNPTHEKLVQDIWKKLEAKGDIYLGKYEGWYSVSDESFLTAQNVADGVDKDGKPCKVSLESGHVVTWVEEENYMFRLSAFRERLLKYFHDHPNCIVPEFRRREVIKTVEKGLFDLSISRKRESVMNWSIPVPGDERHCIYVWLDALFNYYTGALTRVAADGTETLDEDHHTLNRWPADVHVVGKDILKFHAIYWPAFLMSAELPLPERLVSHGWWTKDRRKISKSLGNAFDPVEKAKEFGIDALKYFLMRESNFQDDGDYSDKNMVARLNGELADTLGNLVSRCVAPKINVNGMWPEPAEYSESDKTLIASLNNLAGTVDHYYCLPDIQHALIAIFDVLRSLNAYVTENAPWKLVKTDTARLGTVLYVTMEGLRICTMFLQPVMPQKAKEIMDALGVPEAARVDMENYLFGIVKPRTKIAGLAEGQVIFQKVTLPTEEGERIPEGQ

A: 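Assay on Mycobacterium tuberculosis, filed only as a heat shock assay from Cornell; the read-out is not stated. The concentration is filed as 10 mM, unlikely as a test dose, so the dose is not known. Direction is inferred from retests: higher values go with stronger inhibition. Of about 69,000 compounds tested this way, about 930 (1.4%) reached 50% or more in at least one test.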
B: 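Primary screen of methionyl-tRNA synthetase; the read-out is not stated. Target: Methionyl-tRNA synthetase (putative), Leishmania donovani (UniProt E9BF75). The test concentration is not given. Values are per cent inhibition. Size under these conditions: about 68,000 compounds, about 24 of them at 50% or above in at least one test.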

All values are in %. How 0% and 100% were set is not recorded. Most values in the screen are low, and negative values occur. This is an unselected part of the compounds tested.

{"structure": "Cn1ccnc1N1CCN(C(=O)Cc2ccc(Cl)cc2)CC1", "B": 9.934}
{"structure": "O=C(COC1CCCCC1)Nc1ccn(Cc2ccccn2)n1", "A": -23.42, "B": 18.66}
{"structure": "O=C1CC(c2ccc(C(=O)O)cc2)c2ncn(-c3ccccc3)c2N1", "stereo": "configuration not stated", "A": -21.51, "B": 14.52}
{"structure": "CCC1=NN2C(=N)/C(=C\\c3cccn3-c3ccc(Br)cc3)C(=O)N=C2S1", "A": -8.09, "B": 8.168}
{"structure": "N#CC1CCCN(c2ncnc3c2CCN(Cc2ccccc2)CC3)C1", "stereo": "configuration not stated", "A": -3.965, "B": 17.76}
{"structure": "CCCc1n[nH]c(=O)n1[C@@H](CC)c1ccccc1", "A": 1.04, "B": 18.28}
{"structure": "[H][C@]12CC[C@]([H])(CN(C(=O)c3cnccn3)C1)N(C(=O)Cc1ccsc1)C2", "A": 9.711}
{"structure": "Cn1ncc(NC(=O)c2noc3c2CCCC3)c1C(=O)N1CCCCC1", "A": -16.79, "B": 6.216}
{"structure": "CSCC[C@@H](CO)Nc1nc(-c2ccccn2)nc2c1c(C)nn2C", "A": 63.32, "B": 14.21}
{"structure": "CC(C)Oc1cc(N2CCC3(CC2)[C@H](O)C[C@@H]3O)nc(N)n1", "A": 0.9013, "B": 8.614}
{"structure": "O=C(c1cnccn1)N1CCCC2(CCCN2Cc2cccnc2)C1", "stereo": "configuration not stated", "A": 11.37, "B": 12.41}
{"structure": "CCCS(=O)(=O)N1CC[C@H]2O[C@H](c3nnc(C)o3)CC[C@H]21", "B": 1.587}
{"structure": "Cc1c(CN2CCCC(C(=O)CCc3ccccc3)C2)cc(C#N)n1C", "stereo": "configuration not stated", "A": 4.669, "B": 5.301}
{"structure": "O=C(c1ccco1)N(CC(F)(F)F)C1CCCOC1", "stereo": "configuration not stated", "A": 19.75, "B": 10.14}
{"structure": "COCCN(CCOC)Cc1nc2c(cnn2C)c(=O)[nH]1", "A": -10.64, "B": 11.4}
{"structure": "OC1(CNc2ccc(Br)cn2)CCC1", "A": -24.66, "B": -10.68}
{"structure": "Fc1ccc(CN2CCC3(CC2)CCN(c2ncccn2)CC3)cc1.O=C(O)C(F)(F)F.O=C(O)C(F)(F)F", "A": -1.526}
{"structure": "CN(C)C(=O)CN1C[C@@H]2CC[C@H](C1)N(C(=O)Cc1ccccc1Cl)C2", "B": 4.5}
{"structure": "CN1CCc2[nH]cnc2C12CCN(Cc1ccc3nsnc3c1)CC2", "A": 20.49, "B": 13.16}
{"structure": "Cc1cncc(C2CCCN(C(=O)c3cnco3)C2)n1", "stereo": "configuration not stated", "A": -9.898, "B": 6.824}
{"structure": "CCC(c1ccccc1)N1CCN(CCO)CC1", "stereo": "configuration not stated", "A": -16.63, "B": 9.945}
{"structure": "COCCCNC(=O)N1CCCC(c2nncn2C)C1", "stereo": "configuration not stated", "A": 14.98, "B": 11.02}
{"structure": "Cc1cc(CC(C)Nc2nc(C3CCCC3)nc3c2cnn3C)[nH]n1", "stereo": "configuration not stated", "A": -11.77, "B": 9.536}
{"structure": "O=C([C@H]1C[C@H]2OCC[C@H]2N(Cc2ccc(F)cc2)C1)N1CCCCO1", "B": 8.955}
{"structure": "O=C(NCCNc1ccc(C(F)(F)F)cn1)c1ccc(Br)cc1", "A": -3.574, "B": 23.76}
{"structure": "O=C(O)C(F)(F)F.[H][C@]12CO[C@H](CN(C)C)[C@@]1([H])CCN(C(=O)NCc1cccc(F)c1)C2", "A": 9.882}
{"structure": "CC(C)(Cn1cnc(-c2ccccc2)c1-c1ccco1)N1CCOCC1", "A": -20.45, "B": 14.95}
{"structure": "[H][C@@]12CCN(C(C)=O)C[C@@]1([H])[C@H](C(=O)Nc1cccnc1C)CCO2", "A": 30.83}
{"structure": "COCC(=O)N1CCN(CCn2cccn2)c2nc(C)ccc2C1.O=C(O)C(F)(F)F", "A": -7.36}
{"structure": "COCC(O)CNC(=O)Nc1ccc(Cl)cc1-n1cccc1", "stereo": "configuration not stated", "A": -9.773, "B": 20.99}
{"structure": "COCCNC(C)c1ccc(-c2cccnc2)cc1", "stereo": "configuration not stated", "A": -20.08, "B": 6.069}
{"structure": "Cn1c(=O)ccn(CC(=O)Nc2cccnc2)c1=O", "A": -26.06, "B": 1.955}
{"structure": "CC(=O)c1ccc(N2CCC3(CC2)CC(=O)N(C)C3)nc1", "A": -22.36, "B": 4.178}
{"structure": "Cc1ccc(C(=O)NCC(O)c2cnn(C)c2)c(Br)c1", "stereo": "configuration not stated", "A": 1.119, "B": 11.11}
{"structure": "Cc1nc(Cc2ccccc2)nc2sc(C(=O)O)c(C)c12", "A": 6.248, "B": 4.974}
{"structure": "CSc1cc2c(cc1NC(=O)NCc1ccncc1)OCCO2", "A": -30.12, "B": 5.759}
{"structure": "Cn1cc(C[C@H]2[C@H](O)CCN2CC2CCOCC2)cn1.O=C(O)C(F)(F)F", "A": 6.354}
{"structure": "c1cncc(-c2nnc(C3(c4ccc5c(c4)OCO5)CCOCC3)o2)c1", "A": 3.883, "B": 13.87}
{"structure": "CCC(C)CN(C)C(=O)NCc1ccccc1-n1cccn1", "stereo": "configuration not stated", "A": 10.53, "B": 7.542}

3 of the entries, repeated:

- Cc1cc(CC(C)Nc2nc(C3CCCC3)nc3c2cnn3C)[nH]n1 (configuration not stated) : A: -11.77%; B: 9.536%
- [H][C@@]12CCN(C(C)=O)C[C@@]1([H])[C@H](C(=O)Nc1cccnc1C)CCO2 : A: 30.83%
- CN1CCc2[nH]cnc2C12CCN(Cc1ccc3nsnc3c1)CC2 : A: 20.49%; B: 13.16%

Source: ChEMBL document CHEMBL3988442, “University of Dundee, Small-Polar-MMV Screening Library” (2021).